# The other results are listed elsewhere or left out.
# B1: LERP (Drosophila melanogaster), B7Z0Q8 (protein)
# chain: MRCSLQKDCAAPTQENFRQMRFPIVISLLLLLFCSGESVAADAANQLKFSTTECKLKEPIYGSTFDFSGLHSDLAHVVKSMNIGGDQFEFNICGNLSRTCNGESNVAACLKRQGKEYILGRQHELFYNNGNMFLKYKSGAKCDNGTADKPNYQLHVMFSCDYTLDAQPMHVTPYANEVCSFYISYRTPLACLSIPEGLQSNSCRVGDTKSNGTFDLMPLSDSNYHTSNRQGAFFVINVCKPVLYGENSMCPAGSSVCLFDSKATNPKERFINFGNVQTHPVVEKGQLLLRHESPTPCAKNSSANYTSVIYFSCDKFIRNAHPEFAGLGADSCTYQFNFATPLACNDLKPCTAFTSTNELLDLSSLSSKPARTLLKDGKNYTIAVCAHAGAPCQENGGACYEQNSTTISLGNSNSQLRFNQTGSLYLLYEDGAECSTATGMRRWSTKIEFVCANNATKDNGASTAGGSDSLKIIEDSNCQLLIQYQTPLACREPIRCKATTYVDHTNDGLGSSGDELIDLTPLISATDNYEARVELPASMEHLVPKTTKFFLNVCRPLVPKYQLGCAGGSAACMAKVTAAGAPEEERSMGFPLVSLTQRNRTFAELAYLKGDPCPTDNTSELSTHILFNCNMRAGRGQPVLRSVEDCAYRFEWETNVFCPPHECTFSADTCDLVHDELGRRFNFKSAPFTKDGKIEIDYNATKMSVNICGAHRKAMTDYSQALVNIFFTHESPNCGREGTMNVQIRLICSDQTESSSTISSDQQCNLLYVQRTPSICEFLSLGATQQNFESNGSTSSSTSSSSTSTTTSTTTQASPAGKPTKAATSTTTTTVGPDPAATPIGPTASVGTILGAILSVTFCVTCLGLLAFSPARRQRIRRLFRRSNSAVRYSRVQSNEEANLLLEPNGEFTESDDDMLL
# Experiments:
# Experiment in all cases: glycan array binding signal (z-score within array); higher = stronger binding
# Conditions in all cases: glycan notation: IUPAC condensed, linker removed
# [1] = target: Gal(b1-4)GlcNAc(a1-6)Gal(b1-4)GlcNAc
# Method in brief: (§1)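 Glycan array data came from 3228 arrays in the Consortium for Functional Glycomics database, and only arrays with an available protein sequence were kept. Glycan names were put into IUPAC-condensed notation, and columns mapping to the same glycan were averaged. The binding signal is a within-array Z-score, averaged across arrays of one protein sequence run at different concentrations or buffers and across linkers. A negative Z-score can be read as non-binding.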
# [2] = target: Gal(b1-4)GlcNAc(b1-2)Man(a1-3)Man(b1-4)GlcNAc(b1-4)GlcNAc
# Method in brief: as §1
# [3] = target: Gal(b1-4)GlcNAc(b1-2)Man(a1-3)[Gal(b1-4)GlcNAc(b1-2)Man(a1-6)]Man(b1-4)GlcNAc(b1-4)GlcNAc
# Method in brief: as §1
# [4] = target: Gal(b1-4)GlcNAc(b1-2)Man(a1-3)[Gal(b1-4)GlcNAc(b1-2)Man(a1-6)]Man(b1-4)GlcNAc(b1-4)[Fuc(a1-6)]GlcNAc
# Method in brief: as §1
# [5] = target: Gal(b1-4)GlcNAc(b1-2)Man(a1-3)[GlcNAc(b1-2)Man(a1-6)]Man(b1-4)GlcNAc(b1-4)GlcNAc
# Method in brief: as §1
# [6] = target: Gal(b1-4)GlcNAc(b1-2)Man(a1-3)[Man(a1-6)]Man(b1-4)GlcNAc(b1-4)GlcNAc
# Method in brief: as §1
# [7] = target: Gal(b1-4)GlcNAc(b1-2)Man(a1-6)Man(b1-4)GlcNAc(b1-4)GlcNAc
# Method in brief: as §1
# [8] = target: Gal(b1-4)GlcNAc(b1-2)Man(a1-6)[GlcNAc(b1-2)Man(a1-3)]Man(b1-4)GlcNAc(b1-4)GlcNAc
# Method in brief: as §1
# [9] = target: Gal(b1-4)GlcNAc(b1-2)Man(a1-6)[Man(a1-3)]Man(b1-4)GlcNAc(b1-4)GlcNAc
# Method in brief: as §1
# [10] = target: Gal(b1-4)GlcNAc(b1-2)[Gal(b1-4)GlcNAc(b1-4)]Man(a1-3)[Gal(b1-4)GlcNAc(b1-2)Man(a1-6)]Man(b1-4)GlcNAc(b1-4)GlcNAc
# Method in brief: as §1
# [11] = target: Gal(b1-4)GlcNAc(b1-2)[Gal(b1-4)GlcNAc(b1-4)]Man(a1-3)[Gal(b1-4)GlcNAc(b1-2)[Gal(b1-4)GlcNAc(b1-6)]Man(a1-6)]Man(b1-4)GlcNAc(b1-4)GlcNAc
# Method in brief: as §1
# [12] = target: Gal(b1-4)GlcNAc(b1-3)Gal(b1-3)GlcNAc
# Method in brief: as §1
# [13] = target: Gal(b1-4)GlcNAc(b1-3)Gal(b1-4)Glc
# Method in brief: as §1
# [14] = target: Gal(b1-4)GlcNAc(b1-3)Gal(b1-4)GlcNAc
# Method in brief: as §1
# [15] = target: Gal(b1-4)GlcNAc(b1-3)Gal(b1-4)GlcNAc(b1-3)Gal(b1-4)GlcNAc
# Method in brief: as §1
# [16] = target: Gal(b1-4)GlcNAc(b1-3)Gal(b1-4)[Fuc(a1-3)]GlcNAc(b1-3)Gal(b1-4)[Fuc(a1-3)]GlcNAc
# Method in brief: as §1
# [17] = target: Gal(b1-4)GlcNAc(b1-3)GalNAc
# Method in brief: as §1
# [18] = target: Gal(b1-4)GlcNAc(b1-3)[Gal(b1-4)GlcNAc(b1-6)]Gal(b1-4)GlcNAc
# Method in brief: as §1
# [19] = target: Gal(b1-4)GlcNAc(b1-3)[Gal(b1-4)GlcNAc(b1-6)]GalNAc
# Method in brief: as §1
# [20] = target: Gal(b1-4)GlcNAc(b1-3)[GlcNAc(b1-6)]Gal(b1-4)GlcNAc
# Method in brief: as §1
# [21] = target: Gal(b1-4)GlcNAc(b1-6)Gal(b1-4)GlcNAc
# Method in brief: as §1
# [22] = target: Gal(b1-4)GlcNAc(b1-6)GalNAc
# Method in brief: as §1
# [23] = target: Gal(b1-4)GlcNAc(b1-6)[Gal(b1-3)]GalNAc
# Method in brief: as §1
# Gal3S(b1-3)GalNAc = target: Gal3S(b1-3)GalNAc
# Method in brief: as §1
# Gal3S(b1-3)GlcNAc = target: Gal3S(b1-3)GlcNAc
# Method in brief: as §1
# [24] = target: Gal3S(b1-3)[Fuc(a1-4)]GlcNAc
# Method in brief: as §1
# Gal3S(b1-4)Glc = target: Gal3S(b1-4)Glc
# Method in brief: as §1
# Gal3S(b1-4)Glc6S = target: Gal3S(b1-4)Glc6S
# Method in brief: as §1
# Gal3S(b1-4)GlcNAc = target: Gal3S(b1-4)GlcNAc
# Method in brief: as §1
# Gal3S(b1-4)GlcNAc6S = target: Gal3S(b1-4)GlcNAc6S
# Method in brief: as §1
binder,measurement,setting,value
B1,glycan array binding signal (z-score),[1],-0.745
same,glycan array binding signal (z-score),[2],-0.223
same,glycan array binding signal (z-score),[3],-0.368
same,glycan array binding signal (z-score),[4],-0.281
same,glycan array binding signal (z-score),[5],-0.6
same,glycan array binding signal (z-score),[6],-1.11
same,glycan array binding signal (z-score),[7],-0.636
same,glycan array binding signal (z-score),[8],-0.013
same,glycan array binding signal (z-score),[9],-0.17
same,glycan array binding signal (z-score),[10],-0.021
same,glycan array binding signal (z-score),[11],-1.27
same,glycan array binding signal (z-score),[12],-0.627
same,glycan array binding signal (z-score),[13],-0.059
same,glycan array binding signal (z-score),[14],-0.911
same,glycan array binding signal (z-score),[15],-0.49
same,glycan array binding signal (z-score),[16],-0.219
same,glycan array binding signal (z-score),[17],0.146
same,glycan array binding signal (z-score),[18],-0.458
same,glycan array binding signal (z-score),[19],-0.643
same,glycan array binding signal (z-score),[20],1.36
same,glycan array binding signal (z-score),[21],-0.46
same,glycan array binding signal (z-score),[22],1.55
same,glycan array binding signal (z-score),[23],0.02
same,glycan array binding signal (z-score),Gal3S(b1-3)GalNAc,-0.198
same,glycan array binding signal (z-score),Gal3S(b1-3)GlcNAc,-0.556
same,glycan array binding signal (z-score),[24],-0.363
same,glycan array binding signal (z-score),Gal3S(b1-4)Glc,-0.34
same,glycan array binding signal (z-score),Gal3S(b1-4)Glc6S,0.61
same,glycan array binding signal (z-score),Gal3S(b1-4)GlcNAc,-0.01
same,glycan array binding signal (z-score),Gal3S(b1-4)GlcNAc6S,-0.351

# 2 entries drawn at random from those above, as already listed:
binder,measurement,setting,value
B1,glycan array binding signal (z-score),Gal3S(b1-3)GalNAc,-0.198
same,glycan array binding signal (z-score),[8],-0.013

# Reference: the supplement of paper PMC8728848
